Results on 2 molecules are retold here after PMC6108399.

By UniProt entry, the sequences of proteins in these tests, tags left out.
UniProt Q9FTA2: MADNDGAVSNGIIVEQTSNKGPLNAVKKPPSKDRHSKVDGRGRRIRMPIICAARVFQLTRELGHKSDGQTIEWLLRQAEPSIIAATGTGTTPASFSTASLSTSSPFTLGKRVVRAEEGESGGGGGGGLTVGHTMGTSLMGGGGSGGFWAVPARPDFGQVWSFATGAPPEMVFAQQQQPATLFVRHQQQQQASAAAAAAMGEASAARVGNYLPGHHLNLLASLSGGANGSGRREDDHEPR

Results are given in words; binding and its absence hold for the method and conditions named. For some assays here: Binding seen in cells or lysates may run through a third protein. Some entries that bind do so weakly or less than the wild type. Sequences can lack the tags named with a protein.

In test [1] the target is CCA1 HIKING EXPEDITION (CHE/TCP21), bait fusion from pDEST32:CHE (Arabidopsis thaliana) (UniProt Q9FTA2). The test can be described thus: two-hybrid; ProQuest Gateway system, pDEST32:bait + pDEST22:prey in S. cerevisiae PJ69-4a; growth on SD/-Leu/-Trp/-His with 3 mM 3AT, 30°C, 3 days.
In test [2] the target is CHE-YFP^C (Arabidopsis thaliana) (UniProt Q9FTA2). Nature of the test: split reporter; BiFC with split YFP; Agrobacterium C58C1 co-infiltrated into N. benthamiana leaves, pavement cells imaged by confocal microscopy after 3-4 days.

B1: BASIC LEUCINE ZIPPER63 (bZIP63), prey fusion from pDEST22:bZIP63 (protein, UniProt B9DGI8 1-314)
chain: MEKVFSDEEISGNHHWSVNGMTSLNRSASEWAFNRFIQESSAAADDGESTTACGVSVSSPPNVPVDSEEYRAFLKSKLNLACAAVAMKRGTFIKPQDTSGRSDNGGANESEQASLASSKATPMMSSAITSGSELSGDEEEADGETNMNPTNVKRVKRMLSNRESARRSRRRKQAHLSELETQVSQLRVENSKLMKGLTDVTQTFNDASVENRVLKANIETLRAKVKMAEETVKRLTGFNPMFHNMPQIVSTVSLPSETSNSPDTTSSQVTTPEIISSGNKGKALIGCKMNRTASMRRVESLEHLQKRIRSVGDQ
For the molecule B1, the binding entry in test [1] is on record as “binds”.

B2: bZIP63-YFP^N (protein, UniProt B9DGI8 1-314)
chain: B1 chain
In the case of B2, the binding result in test [2] is listed as “binds”.
